# In publication PMC12120719, “Targeting Senescence with Apigenin Improves Chemotherapeutic Efficacy and Ameliorates Age‐Related Conditions in Mice” (Advanced Science, 2025):
# By UniProt entry, the sequences of proteins in these tests, tags left out.
# UniProt P11142: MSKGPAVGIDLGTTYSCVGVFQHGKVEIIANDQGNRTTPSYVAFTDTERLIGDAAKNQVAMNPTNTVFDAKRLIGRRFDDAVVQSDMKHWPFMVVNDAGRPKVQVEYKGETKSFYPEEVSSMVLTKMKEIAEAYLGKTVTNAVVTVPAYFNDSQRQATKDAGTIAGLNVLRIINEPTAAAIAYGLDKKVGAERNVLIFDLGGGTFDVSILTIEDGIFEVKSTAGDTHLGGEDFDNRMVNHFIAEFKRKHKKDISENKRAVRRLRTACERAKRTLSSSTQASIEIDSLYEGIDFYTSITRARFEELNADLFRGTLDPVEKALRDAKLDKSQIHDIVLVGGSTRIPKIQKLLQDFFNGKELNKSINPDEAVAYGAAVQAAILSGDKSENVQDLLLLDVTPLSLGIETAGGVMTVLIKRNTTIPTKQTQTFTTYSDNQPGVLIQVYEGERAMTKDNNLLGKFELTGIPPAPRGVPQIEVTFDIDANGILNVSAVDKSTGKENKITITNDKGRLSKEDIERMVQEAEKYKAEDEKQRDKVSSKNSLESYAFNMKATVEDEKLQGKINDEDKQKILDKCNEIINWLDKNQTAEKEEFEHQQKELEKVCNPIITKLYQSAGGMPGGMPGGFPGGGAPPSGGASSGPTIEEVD
# No constants are given. Whether binding was seen depends on the method and setting. In cells and extracts the contact can be indirect. These calls come from enrichment with a bait or labelling near it, and not all partners need be listed.
# Biological target: T1, peroxiredoxin 6 (human) (UniProt P30041)
# T1 sequence: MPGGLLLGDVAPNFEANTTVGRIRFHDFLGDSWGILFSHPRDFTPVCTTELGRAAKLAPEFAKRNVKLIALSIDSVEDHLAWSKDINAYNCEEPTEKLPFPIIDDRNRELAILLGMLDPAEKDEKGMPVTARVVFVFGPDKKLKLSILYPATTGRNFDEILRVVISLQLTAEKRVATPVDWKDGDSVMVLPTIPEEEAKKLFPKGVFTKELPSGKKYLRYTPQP
# Assay: affinity purification with mass spectrometry; PRDX6-mediated co-immunoprecipitation followed by MS analysis
substance,measurement,value
HSPA8 (from UniProt P11142 1-646),binding,binds
